Results are given in words; binding and its absence hold for the method and conditions named. Some results given as binding are weak or reduced against the parent protein; the word gives no strength.
Legend:
[1] = molecular target: CCX-CKR2 (RDC1), human (human) (UniProt P25106); test: DisplaceMax displacement of 125I SDF-1α on MCF-7 cells (CCX-CKR2)
[2] = molecular target: CCX-CKR2 (RDC1), human (human) (UniProt P25106); test: competition with 125I SDF-1α on MDA MB 435s cells stably transfected with CCX-CKR2
[3] = molecular target: CCX-CKR2 (RDC1), human (human) (UniProt P25106); test: competition with radiolabeled SDF-1 on MDA MB 435s cells transfected with CCX-CKR2
[4] = molecular target: CCX-CKR2 (RDC1), human (human) (UniProt P25106); test: dose response competition with 125I SDF-1α on MCF-7 cells (CCX-CKR2)
[5] = molecular target: CCX-CKR2 (RDC1), human (human) (UniProt P25106); test: radioligand displacement on MCF-7 cells, 125I SDF-1α and 125I I-TAC as probes

Sequences of proteins named here, by UniProt entry; tags and fusion partners are left off. A change or cut given only in a name is not applied to a line headed by its entry.
UniProt P25106: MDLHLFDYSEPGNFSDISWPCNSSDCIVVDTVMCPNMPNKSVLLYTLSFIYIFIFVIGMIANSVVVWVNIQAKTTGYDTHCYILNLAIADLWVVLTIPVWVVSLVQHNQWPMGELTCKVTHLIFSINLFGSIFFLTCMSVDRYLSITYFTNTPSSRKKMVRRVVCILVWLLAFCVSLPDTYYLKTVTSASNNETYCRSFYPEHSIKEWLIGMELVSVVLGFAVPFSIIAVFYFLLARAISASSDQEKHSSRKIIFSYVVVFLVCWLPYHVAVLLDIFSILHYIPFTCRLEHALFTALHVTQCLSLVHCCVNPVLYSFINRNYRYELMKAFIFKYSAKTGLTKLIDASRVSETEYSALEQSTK

Measured: binding

B1: mouse I-TAC (ligand, UniProt Q9JHH5 22-100, looked up)
chain: FLMFKQGRCLCIGPGMKAVKMAEIEKASVIYPSNGCDKVEVIVTMKAHKRQRCLDPRSKQARLIMQAIEKKNFLRRQNM
binds: [1]

B2: human I-TAC (ligand, UniProt O14625 22-94, looked up)
chain: FPMFKRGRCLCIGPGVKAVKVADIEKASIMYPSNNCDKIEVIITLKENKGQRCLNPKSKQARLIIKKVERKNF
binds: [1] | [2] | [3] | [4] | [5]

— US20050074826A1
